59 compounds from PubChem BioAssay AID2685 (National Center for Advancing Translational Sciences (NCATS), 2010) can be followed below.

This is one part of the list. Shown are side measurements of this screen, not its main read-out; they come without a call. The list favours compounds with an active or inconclusive main result. Words in brackets tell the shape of the fitted curve; partial curves, single points and poor fits give uncertain potencies.

The nature of the assay: qHTS Assay for Lipid Storage Modulators in Drosophila S3 Cells.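 For cell number change: cells counted by Cell Tracker Red CMTPX staining in the red channel.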 To be noted: BODIPY lipid droplet fluorescence, 18-24 h; for cell number change: measured here: cell count max response, cells fed with added oleic acid. The method in brief: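 Drosophila S3 cells got compounds at several concentrations plus oleic acid (400 uM solution). Laser-scanning cytometry with 488 nm excitation read lipid droplets at 500-530 nm and cells at 575-640 nm. Percent activity was relative to 20 uM Triacsin C.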

Where [1] appears, read: measured here: cell number channel AC50, cells fed with added oleic acid.
[2] abbreviates: measured here: lipid fluorescence (Fed channel) AC50, cells fed with added oleic acid.

With `COc1ccccc1-n1cnc2cc(C(=O)NCCCN3CCOCC3)ccc21`, the AC50 under setting [1] was 1.3 µM [rising, partial curve].

Take `O=C(CSc1ncnc2ccccc12)N1CCCC1`: the cell number change stood at 3.92%. The AC50 under setting [2] is 0.58 µM [falling, single point]. Consider `COC(=O)C(/C=N/O)NC(=O)c1ccccc1` (stereo not given), for which the cell number change was -3.52%. Consider `COc1ccc(CNC(=O)COC(=O)c2cc(-c3ccco3)nc3ccccc23)cc1`, for which the AC50 under setting [2] was 6.51 µM [rising, single point]. Turning to `CSCCC(NS(=O)(=O)c1ccc(C)cc1)C(=O)NNC(=O)c1csc(N2CCOCC2)n1` (stereo not given), the cell number change is 21%. In the case of `O=C(NNC(=O)C12CC3CC(CC(C3)C1)C2)c1cnccn1`, the cell number change was found to be 69.1%. Moreover, under setting [1], the AC50 was 29.1 µM [rising, single point]. Further, the half-maximal activity concentration (AC50) under setting [2] was 8.2 µM [falling, partial curve, poor fit]. With `Cc1c(Br)c([N+](=O)[O-])nn1CC(=O)Nc1sc2c(c1C(=O)OC(C)C)CCC(C)C2` (stereo not given), the cell number change is 6.85%. In addition, the AC50 under setting [2] is 29.1 µM [rising, single point]. For `COc1ccccc1OCC(=O)NNC(=O)c1cccs1`, the cell number change stood at 50%. Under setting [1], the AC50 is 16.4 µM [rising, single point]. For the same compound, the AC50 under setting [2] was 11.6 µM [rising, single point]. For the compound `Cc1sc(NC(=O)C2CSC3(C)CCC(=O)N23)nc1-c1ccc(F)cc1` (stereo not given), the cell number change came out at 12.1%. The AC50 under setting [2] is 2.82 µM [rising, partial curve]. `Cc1ccc(NC2CCCCC2NS(=O)(=O)c2ccc(Cl)cc2)cc1` (stereo not given): the cell number change was -3.47%. The AC50 under setting [2] is 4.11 µM [rising, single point].

In the case of `Cc1ccc(S(=O)(=O)N2CCN(CC(=O)N/N=C/c3ccco3)CC2)cc1`, the cell number change turned out to be 30.3%. Further, the AC50 under setting [1] is 5.17 µM [rising, full curve, poor fit]. Moreover, the AC50 under setting [2] is 0.231 µM [falling, full curve]. On to `CCN(C(=O)COC(=O)c1cc(S(=O)(=O)N2CCOCC2)c(Cl)cc1Cl)C1CCS(=O)(=O)C1` (stereo not given), for which the cell number change was -2.39%. The AC50 under setting [2] is 0.82 µM [rising, partial curve, poor fit]. In the case of `O=c1n(CCCN2CCN(c3cccc(Cl)c3)CC2)nc2ccccn12`, the cell number change amounted to 30.7%. Besides, the AC50 under setting [1] was 20.6 µM [rising, single point]. Also, under setting [2], the AC50 was 29.1 µM [rising, single point]. `CCN(CC)CCNC(=O)c1cn(C)c2ccc(S(=O)(=O)N(C)C3CCCCC3)cc2c1=O`: the cell number change was 5.74%. Take `O=c1cc(CN2CCN(S(=O)(=O)c3ccccc3)CC2)nc2ccc(Cl)cn12`: the cell number change is -8.3%. Further, under setting [2], the half-maximal activity concentration (AC50) is 2.59 µM [rising, single point]. On to `COc1ccc(S(=O)(=O)NCCOc2cccc3cccnc23)cc1OC`, for which the cell number change is -33.6%. Also, under setting [2], the AC50 was 29.1 µM [falling, partial curve, poor fit]. `COCCn1c(SCC(=O)Nc2ccccc2F)nc2c([nH]c3ccccc32)c1=O`: the cell number change stood at 32.2%. The AC50 under setting [1] is 0.0517 µM [rising, full curve, poor fit]. Moreover, under setting [2], the AC50 was 0.116 µM [rising, full curve, poor fit]. In the case of `CCN(C(=O)COC(=O)CCCN1C(=O)c2cccc3cccc(c23)C1=O)C1CCS(=O)(=O)C1` (stereo not given), the cell number change stood at 17.5%. Turning to `C=C(C)Cn1c(SCCN2CCOCC2)nc2c1c(=O)[nH]c(=O)n2C`, the cell number change is -3.22%. Further, the AC50 under setting [2] was 13 µM [rising, partial curve, poor fit]. With `O=S(=O)(Cc1ccccc1)N1CCNCC1`, the cell number change was 7.89%. In addition, the AC50 under setting [1] is 0.58 µM [rising, single point]. Turning to `O=C(NNC(=O)c1ccc(O)cc1O)c1ccc(Cl)cc1`, the cell number change is -86.1%. Also, the AC50 under setting [1] was 29.1 µM [falling, partial curve, poor fit].

Consider `CCOc1ccc(CN2CCN(S(=O)(=O)c3ccc(NC(C)=O)cc3)CC2)cc1`, for which, under setting [2], the AC50 is 29.1 µM [rising, single point]. `Cc1c(NC(=O)c2ccccc2N(C)S(=O)(=O)c2ccccc2)c(=O)n(-c2ccccc2)n1C`: the cell number change came out at 33.3%. Also, under setting [1], the concentration at half-maximal activity (AC50) is 0.291 µM [rising, partial curve, poor fit]. In addition, under setting [2], the half-maximal activity concentration (AC50) was 5.8 µM [falling, single point].

Turning to `CCn1c(C)cc(C)c(C#N)c1=O`, the AC50 by setting is: under setting [1], 0.92 µM [falling, full curve, poor fit]; under setting [2], 0.0058 µM [falling, full curve, poor fit]. Turning to `COc1ccc(S(=O)(=O)Nc2ccc3c(c2)n(C)c(=O)n3C)cc1C`, the cell number change is -14.3%. For `CCNC(=O)CN(c1ccc(CC)cc1)S(C)(=O)=O`, the cell number change is 12.3%. Also, under setting [2], the AC50 was 4.11 µM [falling, full curve]. For `CN(Cc1ccccc1)C(=O)COC(=O)c1cncc(Br)c1`, the cell number change is -47.2%. The AC50 under setting [1] was 29.1 µM [falling, single point]. Further, under setting [2], the AC50 was 20.6 µM [falling, partial curve]. Take `O=C(COc1cccc(NC(=O)c2ccco2)c1)c1ccc(F)cc1`: the half-maximal activity concentration (AC50) runs as follows: under setting [1], 2.06 µM [rising, partial curve]; under setting [2], 6.51 µM [rising, single point]. Regarding `COc1cc2[nH]c(=O)n(CCC(=O)N3CCC(N4CCCCC4)CC3)c(=O)c2cc1OC`, the cell number change was 34.3%. Further, the AC50 under setting [1] is 29.1 µM [rising, single point]. The AC50 under setting [2] was 29.1 µM [rising, single point]. Turning to `CC1=NNC(=O)/C1=C\c1cn(-c2ccccc2)nc1-c1ccccc1`, the cell number change was -56.4%. For the same compound, the AC50 under setting [1] is 0.259 µM [falling, full curve]. Moreover, under setting [2], the AC50 is 0.231 µM [falling, full curve].

For the compound `OCCn1ccc(-c2ccccc2OCc2ccc(F)cc2)n1`, the cell number change came to 20.9%. Moreover, under setting [2], the AC50 was 8.2 µM [rising, partial curve]. Regarding `Cc1nonc1CN(C)C(=O)c1cc(COc2ccc(F)cc2Cl)on1`, the cell number change is -14.7%. For the same compound, under setting [2], the AC50 was 0.0651 µM [rising, full curve, poor fit]. With `COCc1cc(C)[nH]c(=O)c1C(=O)NC12CC3CC(CC(C3)C1)C2`, the cell number change is -8.23%. For the compound `COc1ccc(-c2noc(CN(C(=O)c3ccc4c(c3)OCO4)C(C)C)n2)cc1`, the cell number change turned out to be 2.1%. Also, the concentration at half-maximal activity (AC50) under setting [2] is 0.326 µM [falling, single point]. Consider `CCCOc1ccccc1OCC(=O)Nc1ccc(S(=O)(=O)N2CCCC2)cc1`, for which the cell number change was -54%. The AC50 under setting [1] is 18.4 µM [falling, partial curve]. Further, under setting [2], the AC50 was 7.31 µM [falling, partial curve]. Turning to `c1ccc2c(COn3nnc4ccccc43)cccc2c1`, the cell number change was found to be 166%. Under setting [1], the AC50 is 11.6 µM [rising, partial curve]. Under setting [2], the AC50 was 4.61 µM [rising, partial curve].

For the compound `O=C(COC(=O)c1cnccn1)NCCc1ccc(Cl)cc1Cl`, the cell number change was -17.8%. Also, the AC50 under setting [1] is 0.00461 µM [rising, full curve, poor fit]. For `O=C(c1cccs1)c1coc2ccc(O)c(CN(CCO)CCO)c12`, the AC50 under setting [1] is 0.651 µM [falling, single point]. With `CCCCNC(=S)NC(=O)c1ccccc1Br`, the cell number change amounted to 1.8%. In addition, the AC50 under setting [1] is 0.731 µM [rising, full curve]. Also, under setting [2], the AC50 was 6.51 µM [rising, partial curve]. As to `Cc1cccc(-c2nnc(SCC(=O)N3CCOCC3)o2)c1`, the cell number change was -10.5%. `Cn1c(=O)c2c(ncn2Cc2nnc(N)s2)n(C)c1=O`: the cell number change was -45.9%. Besides, the AC50 under setting [2] is 6.51 µM [falling, partial curve, poor fit]. Regarding `CCCOc1cccc(C(=O)NCCCNC(=O)c2ccccn2)c1`, the cell number change was -5.52%. For the same compound, the half-maximal activity concentration (AC50) under setting [2] was 29.1 µM [rising, single point]. With `Nc1nc(SCC(=O)NCc2ccc3c(c2)OCO3)n[nH]1`, the AC50 is 0.891 µM [falling, full curve] under setting [1] and 2.51 µM [falling, partial curve] under setting [2]. As for `O=C(N/N=C/c1cccnc1)c1cccc(F)c1`, the cell number change came out at 9.61%. Moreover, the AC50 under setting [2] is 29.1 µM [rising, single point]. `O=C(Nc1ccnc(-c2ccncc2)n1)C1CC1`: the cell number change stood at 20%. Under setting [2], the AC50 is 0.0082 µM [falling, full curve, poor fit]. For the compound `Nc1nc(NCc2ccco2)nn1-c1ccccc1`, the cell number change was -13.5%. For the same compound, under setting [2], the AC50 is 2.59 µM [falling, full curve]. `CCCSc1cc(N2CCN(C)CC2)nc(-c2ccc(OC)cc2)n1`: the cell number change is -36.9%. For the same compound, the AC50 under setting [2] is 0.164 µM [falling, full curve, poor fit].

`COc1cc(-c2cc(C(=O)Nc3cccc(C(C)=O)c3)c3ccccc3n2)cc(OC)c1OC`: the cell number change stood at 335%. Further, under setting [1], the AC50 was 20.6 µM [rising, partial curve]. For the same compound, the half-maximal activity concentration (AC50) under setting [2] is 0.116 µM [falling, single point].

For `CN(C)CC(C)(C)CNS(=O)(=O)c1cccc(Cl)c1Cl`, the cell number change is -7.53%. For `CCOc1ccccc1N(C(=O)c1ccccc1Cl)C1=NC(C)(C)CS1`, the cell number change was -1.37%. For `CC(=O)c1ccc(N2CCN(C(=O)[C@H](C)NC(=O)c3ccccc3Cl)CC2)cc1`, the cell number change is 21.7%. The AC50 under setting [2] is 23.1 µM [rising, single point]. Regarding `CC(=O)Nc1ccc(NC(=S)NC(=O)/C=C/c2ccco2)cc1`, the AC50 under setting [2] is 2.59 µM [falling, full curve]. Regarding `O=C(COC(=O)C1CCN(S(=O)(=O)c2cccs2)CC1)Nc1ccc(F)c(F)c1F`, under setting [2], the AC50 was 14.6 µM [rising, partial curve]. As to `Cc1sc(NC(=O)c2cccs2)nc1-c1ccccc1`, the cell number change was -16.9%. In the case of `O=C(N/N=C/c1cccs1)C1COc2ccccc2O1` (stereo not given), the cell number change was 41%.

`NC(=O)C1(N2CCCCC2)CCN(C(=O)CSc2nc(C(F)(F)F)cc(=O)[nH]2)CC1`: the cell number change was -39.2%. For the same compound, the half-maximal activity concentration (AC50) under setting [2] is 0.184 µM [falling, full curve].

`COc1ccc(/C=C/c2nc(N)nc(-c3ccccc3O)n2)cc1OC`: the cell number change is -70%. Further, under setting [1], the AC50 is 5.8 µM [falling, partial curve]. The AC50 under setting [2] is 0.82 µM [rising, full curve].

For `COc1cc(CNCc2ccc(Br)cc2)cc(OC)c1`, the cell number change is -24.3%. Besides, the AC50 under setting [2] was 29.1 µM [falling, single point]. Turning to `CC1=NN(C(=O)Cc2ccc([N+](=O)[O-])cc2)C(O)(c2ccccc2)C1` (stereo not given), the cell number change is 9.32%. Moreover, the AC50 under setting [2] was 11.6 µM [rising, partial curve].
